In the supplement of paper PMC6411743:
± gives the standard deviation of the averaged measurements. Some of the results follow.

Chains of the proteins cited; added tags and fusions are not shown. Lines headed by an entry give the natural chain unless they say otherwise; changes in a name come on top.
UniProt Q9BWM7: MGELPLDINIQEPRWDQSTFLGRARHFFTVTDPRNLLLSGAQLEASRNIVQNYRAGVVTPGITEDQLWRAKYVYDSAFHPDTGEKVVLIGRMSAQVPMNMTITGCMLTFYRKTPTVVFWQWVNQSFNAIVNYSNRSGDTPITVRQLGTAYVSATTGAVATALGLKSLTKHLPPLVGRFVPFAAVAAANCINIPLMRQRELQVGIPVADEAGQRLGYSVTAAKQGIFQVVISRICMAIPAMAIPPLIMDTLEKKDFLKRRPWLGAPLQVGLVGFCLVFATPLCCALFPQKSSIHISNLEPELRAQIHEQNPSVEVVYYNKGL
UniProt Q6ZRP7: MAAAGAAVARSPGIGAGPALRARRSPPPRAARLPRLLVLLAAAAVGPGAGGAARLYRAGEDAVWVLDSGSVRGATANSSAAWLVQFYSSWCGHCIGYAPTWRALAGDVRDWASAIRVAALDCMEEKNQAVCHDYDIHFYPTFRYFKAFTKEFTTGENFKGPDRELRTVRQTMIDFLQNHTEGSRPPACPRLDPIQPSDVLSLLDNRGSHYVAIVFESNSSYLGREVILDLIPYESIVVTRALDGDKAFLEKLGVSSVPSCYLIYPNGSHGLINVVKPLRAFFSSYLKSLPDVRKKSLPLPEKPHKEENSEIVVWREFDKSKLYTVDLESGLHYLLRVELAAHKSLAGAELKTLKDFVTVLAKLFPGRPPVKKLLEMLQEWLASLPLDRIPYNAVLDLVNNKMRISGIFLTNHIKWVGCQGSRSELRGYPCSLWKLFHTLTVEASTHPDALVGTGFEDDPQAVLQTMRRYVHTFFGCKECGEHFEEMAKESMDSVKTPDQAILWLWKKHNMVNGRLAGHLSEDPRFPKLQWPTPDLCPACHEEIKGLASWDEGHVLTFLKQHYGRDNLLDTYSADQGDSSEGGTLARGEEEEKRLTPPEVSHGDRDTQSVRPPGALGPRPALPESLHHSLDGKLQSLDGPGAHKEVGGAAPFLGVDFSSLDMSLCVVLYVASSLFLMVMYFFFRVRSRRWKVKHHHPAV
UniProt Q9NZ52: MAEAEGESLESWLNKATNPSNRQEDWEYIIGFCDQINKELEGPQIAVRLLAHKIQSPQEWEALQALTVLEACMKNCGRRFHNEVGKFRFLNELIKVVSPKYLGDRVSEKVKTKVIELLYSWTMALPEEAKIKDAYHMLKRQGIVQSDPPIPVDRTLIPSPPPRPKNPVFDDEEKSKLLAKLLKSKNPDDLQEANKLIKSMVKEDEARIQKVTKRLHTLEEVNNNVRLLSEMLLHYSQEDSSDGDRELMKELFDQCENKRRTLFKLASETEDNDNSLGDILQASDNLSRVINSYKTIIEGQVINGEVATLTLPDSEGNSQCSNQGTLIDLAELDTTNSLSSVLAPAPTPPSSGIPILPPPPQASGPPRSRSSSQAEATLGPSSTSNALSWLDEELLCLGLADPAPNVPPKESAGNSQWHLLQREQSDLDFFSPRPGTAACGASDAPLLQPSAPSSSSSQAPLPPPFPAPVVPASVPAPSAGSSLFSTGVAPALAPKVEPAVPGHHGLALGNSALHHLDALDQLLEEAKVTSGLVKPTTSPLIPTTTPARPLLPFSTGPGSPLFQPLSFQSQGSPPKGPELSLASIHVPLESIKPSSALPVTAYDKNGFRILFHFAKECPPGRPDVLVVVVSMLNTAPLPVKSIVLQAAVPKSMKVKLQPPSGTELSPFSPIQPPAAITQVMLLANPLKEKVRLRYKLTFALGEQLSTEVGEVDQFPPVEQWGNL
UniProt Q9NYM9: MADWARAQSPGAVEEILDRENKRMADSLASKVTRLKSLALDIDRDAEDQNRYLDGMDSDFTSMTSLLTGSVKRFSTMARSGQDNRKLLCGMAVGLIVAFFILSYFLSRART
UniProt A4D161: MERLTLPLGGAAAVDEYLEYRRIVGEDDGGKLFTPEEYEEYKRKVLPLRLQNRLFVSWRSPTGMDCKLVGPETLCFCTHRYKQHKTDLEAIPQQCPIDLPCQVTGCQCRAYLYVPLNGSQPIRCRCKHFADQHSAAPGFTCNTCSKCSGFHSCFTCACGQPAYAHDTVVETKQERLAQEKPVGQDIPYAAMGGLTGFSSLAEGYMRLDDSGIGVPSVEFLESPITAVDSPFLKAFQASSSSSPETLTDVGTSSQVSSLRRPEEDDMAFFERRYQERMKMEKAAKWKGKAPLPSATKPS
UniProt Q9P2E9: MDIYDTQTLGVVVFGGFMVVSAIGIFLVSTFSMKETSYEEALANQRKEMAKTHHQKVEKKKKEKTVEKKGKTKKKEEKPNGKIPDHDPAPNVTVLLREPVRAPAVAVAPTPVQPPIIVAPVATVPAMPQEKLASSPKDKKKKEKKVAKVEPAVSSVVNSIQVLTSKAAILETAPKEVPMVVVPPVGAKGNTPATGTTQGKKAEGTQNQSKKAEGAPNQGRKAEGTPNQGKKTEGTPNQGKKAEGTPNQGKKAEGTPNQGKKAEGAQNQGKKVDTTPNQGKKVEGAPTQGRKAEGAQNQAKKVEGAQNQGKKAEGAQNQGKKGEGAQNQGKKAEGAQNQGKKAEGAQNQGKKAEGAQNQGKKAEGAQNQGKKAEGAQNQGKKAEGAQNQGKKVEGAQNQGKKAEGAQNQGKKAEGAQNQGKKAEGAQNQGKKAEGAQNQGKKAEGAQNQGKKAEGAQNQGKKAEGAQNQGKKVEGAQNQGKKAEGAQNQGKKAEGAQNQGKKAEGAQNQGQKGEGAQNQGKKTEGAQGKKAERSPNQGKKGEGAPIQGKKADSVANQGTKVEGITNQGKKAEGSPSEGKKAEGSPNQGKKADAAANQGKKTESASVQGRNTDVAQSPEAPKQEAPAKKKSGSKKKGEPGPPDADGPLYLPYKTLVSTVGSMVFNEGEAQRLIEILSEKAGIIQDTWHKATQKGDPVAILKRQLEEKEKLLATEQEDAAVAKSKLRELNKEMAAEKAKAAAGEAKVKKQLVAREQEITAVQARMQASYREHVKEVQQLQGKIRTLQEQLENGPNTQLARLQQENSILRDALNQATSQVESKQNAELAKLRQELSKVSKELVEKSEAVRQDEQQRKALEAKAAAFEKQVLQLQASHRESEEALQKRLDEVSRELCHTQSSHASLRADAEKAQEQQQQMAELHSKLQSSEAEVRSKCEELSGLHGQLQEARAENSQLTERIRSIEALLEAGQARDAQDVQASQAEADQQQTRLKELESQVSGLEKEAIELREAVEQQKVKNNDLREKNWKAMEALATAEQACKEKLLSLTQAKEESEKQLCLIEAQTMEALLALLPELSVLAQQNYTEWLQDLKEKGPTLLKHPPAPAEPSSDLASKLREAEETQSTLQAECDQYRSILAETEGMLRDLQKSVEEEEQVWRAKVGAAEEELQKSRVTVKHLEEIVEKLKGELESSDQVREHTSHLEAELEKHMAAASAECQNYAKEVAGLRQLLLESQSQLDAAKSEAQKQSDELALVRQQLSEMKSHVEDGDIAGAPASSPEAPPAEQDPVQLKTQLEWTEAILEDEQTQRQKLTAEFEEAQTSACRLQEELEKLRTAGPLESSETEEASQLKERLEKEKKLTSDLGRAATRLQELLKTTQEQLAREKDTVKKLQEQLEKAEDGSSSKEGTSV
UniProt Q8NEL9: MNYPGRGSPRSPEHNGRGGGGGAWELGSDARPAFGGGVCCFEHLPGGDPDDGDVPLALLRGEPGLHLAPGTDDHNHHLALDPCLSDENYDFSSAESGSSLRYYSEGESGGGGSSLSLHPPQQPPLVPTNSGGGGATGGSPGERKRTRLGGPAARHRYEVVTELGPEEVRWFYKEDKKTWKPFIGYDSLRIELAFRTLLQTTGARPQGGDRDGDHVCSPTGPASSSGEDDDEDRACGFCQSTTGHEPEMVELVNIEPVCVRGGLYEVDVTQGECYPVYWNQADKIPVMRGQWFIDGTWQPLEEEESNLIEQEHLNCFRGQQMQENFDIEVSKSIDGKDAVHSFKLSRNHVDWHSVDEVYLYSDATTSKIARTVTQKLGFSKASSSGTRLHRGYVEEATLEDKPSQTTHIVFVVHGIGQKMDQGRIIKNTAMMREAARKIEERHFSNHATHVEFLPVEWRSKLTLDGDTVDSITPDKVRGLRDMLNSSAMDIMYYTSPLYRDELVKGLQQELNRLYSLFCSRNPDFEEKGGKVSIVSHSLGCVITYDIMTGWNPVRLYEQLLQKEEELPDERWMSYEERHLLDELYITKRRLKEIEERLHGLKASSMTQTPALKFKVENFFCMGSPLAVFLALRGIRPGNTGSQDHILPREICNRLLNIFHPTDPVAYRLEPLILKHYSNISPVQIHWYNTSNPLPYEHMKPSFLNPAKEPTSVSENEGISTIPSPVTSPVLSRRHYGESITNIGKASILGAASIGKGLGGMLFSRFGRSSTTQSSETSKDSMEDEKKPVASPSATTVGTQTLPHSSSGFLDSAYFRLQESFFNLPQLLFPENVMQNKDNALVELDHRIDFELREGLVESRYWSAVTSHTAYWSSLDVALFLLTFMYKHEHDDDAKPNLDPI
UniProt P09234, whole entry: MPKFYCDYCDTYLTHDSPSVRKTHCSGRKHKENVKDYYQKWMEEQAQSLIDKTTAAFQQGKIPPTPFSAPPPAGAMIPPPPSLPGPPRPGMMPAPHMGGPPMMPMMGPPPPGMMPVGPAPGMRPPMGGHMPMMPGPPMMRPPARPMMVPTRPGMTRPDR
UniProt A3KMH1: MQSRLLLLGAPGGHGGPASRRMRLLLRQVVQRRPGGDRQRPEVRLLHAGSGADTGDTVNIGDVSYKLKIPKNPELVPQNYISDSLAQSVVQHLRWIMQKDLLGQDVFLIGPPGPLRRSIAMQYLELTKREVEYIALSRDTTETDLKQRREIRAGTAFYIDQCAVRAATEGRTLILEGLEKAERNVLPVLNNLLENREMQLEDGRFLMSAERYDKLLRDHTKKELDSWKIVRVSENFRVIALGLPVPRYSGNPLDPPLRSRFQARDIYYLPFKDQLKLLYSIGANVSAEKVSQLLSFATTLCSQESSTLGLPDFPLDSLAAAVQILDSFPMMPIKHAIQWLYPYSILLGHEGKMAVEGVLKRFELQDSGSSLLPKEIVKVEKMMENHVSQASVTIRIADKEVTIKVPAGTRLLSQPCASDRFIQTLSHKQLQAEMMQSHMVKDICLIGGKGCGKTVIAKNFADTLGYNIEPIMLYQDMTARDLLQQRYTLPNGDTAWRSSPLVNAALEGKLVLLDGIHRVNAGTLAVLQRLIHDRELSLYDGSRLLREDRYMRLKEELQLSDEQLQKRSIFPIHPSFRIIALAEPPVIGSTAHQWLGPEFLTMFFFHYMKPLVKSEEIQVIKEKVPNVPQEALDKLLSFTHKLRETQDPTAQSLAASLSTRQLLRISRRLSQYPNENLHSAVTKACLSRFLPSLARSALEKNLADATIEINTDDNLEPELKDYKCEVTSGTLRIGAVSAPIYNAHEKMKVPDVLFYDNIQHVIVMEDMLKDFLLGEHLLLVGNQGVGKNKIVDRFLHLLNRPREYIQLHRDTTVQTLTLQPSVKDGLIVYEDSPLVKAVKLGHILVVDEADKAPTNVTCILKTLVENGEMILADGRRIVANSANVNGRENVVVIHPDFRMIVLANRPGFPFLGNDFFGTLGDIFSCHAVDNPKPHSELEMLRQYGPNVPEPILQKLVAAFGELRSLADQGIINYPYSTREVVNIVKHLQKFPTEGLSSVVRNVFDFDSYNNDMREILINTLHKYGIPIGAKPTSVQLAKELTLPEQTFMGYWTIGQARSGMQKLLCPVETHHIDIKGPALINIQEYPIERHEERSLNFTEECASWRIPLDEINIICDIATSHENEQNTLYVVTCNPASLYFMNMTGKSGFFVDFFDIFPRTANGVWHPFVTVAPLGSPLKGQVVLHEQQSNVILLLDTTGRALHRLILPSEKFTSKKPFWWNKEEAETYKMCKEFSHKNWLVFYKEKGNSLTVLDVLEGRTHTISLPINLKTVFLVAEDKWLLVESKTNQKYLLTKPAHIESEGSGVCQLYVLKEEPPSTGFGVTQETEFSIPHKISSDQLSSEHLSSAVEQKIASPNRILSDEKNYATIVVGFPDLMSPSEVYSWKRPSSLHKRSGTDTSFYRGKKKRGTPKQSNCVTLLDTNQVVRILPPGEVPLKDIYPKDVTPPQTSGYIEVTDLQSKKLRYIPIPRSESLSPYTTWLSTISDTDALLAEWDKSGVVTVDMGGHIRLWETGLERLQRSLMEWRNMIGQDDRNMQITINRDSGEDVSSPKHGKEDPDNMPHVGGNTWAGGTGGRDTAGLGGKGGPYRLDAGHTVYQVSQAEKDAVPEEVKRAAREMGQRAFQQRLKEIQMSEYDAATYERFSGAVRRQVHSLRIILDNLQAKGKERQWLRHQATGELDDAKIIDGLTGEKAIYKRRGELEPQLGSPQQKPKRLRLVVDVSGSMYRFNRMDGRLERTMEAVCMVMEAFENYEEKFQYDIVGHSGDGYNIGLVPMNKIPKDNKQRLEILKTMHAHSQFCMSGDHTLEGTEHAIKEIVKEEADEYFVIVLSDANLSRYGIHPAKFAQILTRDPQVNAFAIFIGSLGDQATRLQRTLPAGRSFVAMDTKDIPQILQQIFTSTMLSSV

Compound: Nc1nc2c(ncn2[C@@H]2O[C@H](COP(=O)(O)OP(=O)(O)OP(=O)(O)O)[C@@H](O)[C@H]2O)c(=O)[nH]1 [guanosine triphosphate]
Assay: NP40-soluble protein abundance relative to vehicle (solubility fold change) (ratio); higher = more soluble protein in presence of GTP
In short: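 Values are fold changes against the detergent-processed vehicle, based on vsn-normalised intensities. Jurkat crude lysate was treated at eight concentrations from 0.1 to 10 mM (10 min at room temperature, then 3 min at 37 °C), solubilised with 0.8% NP40 and benzonase, ultracentrifuged and analysed by TMT-labelled LC-MS/MS over three independent experiments.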

Target	NP40-soluble protein abundance (concentration: 0.1mM)	NP40-soluble protein abundance (concentration: 0.5mM)	NP40-soluble protein abundance (concentration: 1mM)	NP40-soluble protein abundance (concentration: 2mM)	NP40-soluble protein abundance (concentration: 4mM)	NP40-soluble protein abundance (concentration: 6mM)	NP40-soluble protein abundance (concentration: 8mM)	NP40-soluble protein abundance (concentration: 10mM)
A0A0A0MS41|Q9BWM7 (UniProt Q9BWM7)	1.01 ± 0.098	0.976 ± 0.095	0.958 ± 0.058	0.941 ± 0.048	0.97 ± 0.059	0.943 ± 0.052	0.931 ± 0.08	0.899 ± 0.03
A0A087X176|Q6ZRP7 (UniProt Q6ZRP7)	0.955 ± 0.015	0.918 ± 0.032	0.947 ± 0.041	0.94 ± 0.035	0.982 ± 0.034	0.955 ± 0.03	0.923 ± 0.067	0.945 ± 0.028
A0A0G2JLB3|A0A0G2JNZ5|P04062 and related entries (UniProt P04062)	1.42 ± 0.38	0.843 ± 0.15	0.936 ± 0.086	1.14 ± 0.19	0.972 ± 0.049	0.922 ± 0.11	0.884 ± 0.069	0.829 ± 0.1
A0A087WYN2|J3KSS7 and related entries (UniProt Q9NZ52)	0.909 ± 0.037	0.905 ± 0.087	0.957 ± 0.09	0.915 ± 0.13	0.92 ± 0.14	0.94 ± 0.16	0.921 ± 0.08	0.896 ± 0.057
A0A0C4DH16|B8ZZS0 and related entries (UniProt Q9NYM9)	0.849 ± 0.071	0.819 ± 0.096	1.03 ± 0.032	0.95 ± 0.053	0.965 ± 0.036	0.962 ± 0.083	0.888 ± 0.098	1.03 ± 0.048
UniProt A4D161 and related entries	1.07 ± 0.17	1.05 ± 0.19	1.02 ± 0.2	1 ± 0.12	1.01 ± 0.09	0.974 ± 0.14	0.979 ± 0.062	1.01 ± 0.16
A0A087X127|E7EWM3 and related entries (UniProt Q8NF64)	1.04 ± 0.16	1.05 ± 0.11	1.06 ± 0.14	0.9 ± 0.076	0.868 ± 0.12	0.957 ± 0.12	0.948 ± 0.078	0.936 ± 0.19
A0A0A0MRV0|Q9P2E9 and related entries (UniProt Q9P2E9)	0.91 ± 0.035	0.946 ± 0.043	1.02 ± 0.016	0.987 ± 0.049	0.956 ± 0.05	1.02 ± 0.054	1.08 ± 0.02	1.13 ± 0.078
A0A087X0H7|Q8NEL9 and related entries (UniProt Q8NEL9)	1.06 ± 0.06	1.05 ± 0.067	0.974 ± 0.14	1.03 ± 0.078	1.01 ± 0.026	0.936 ± 0.024	0.96 ± 0.14	0.879 ± 0.036
A0A0A0MRR7|P09234 (UniProt P09234)	1.06 ± 0.017	1.19 ± 0.068	1.25 ± 0.068	1.36 ± 0.052	1.33 ± 0.11	1.56 ± 0.097	1.71 ± 0.2	1.82 ± 0.24
A0A0C4DGX2|E7ESL0 and related entries (UniProt Q9NWU5)	1.23 ± 0.17	1.33 ± 0.36	1.35 ± 0.43	1.51 ± 0.47	1.47 ± 0.4	1.48 ± 0.48	1.46 ± 0.46	1.33 ± 0.45
UniProt A3KMH1 and related entries	1.09 ± 0.064	1.1 ± 0.1	0.992 ± 0.094	1.05 ± 0.14	1.06 ± 0.095	1.01 ± 0.12	1.01 ± 0.086	0.952 ± 0.089

An excerpt taken from the entries so far, for reference:
Target	NP40-soluble protein abundance (concentration: 0.1mM)	NP40-soluble protein abundance (concentration: 0.5mM)	NP40-soluble protein abundance (concentration: 1mM)	NP40-soluble protein abundance (concentration: 2mM)	NP40-soluble protein abundance (concentration: 4mM)	NP40-soluble protein abundance (concentration: 6mM)	NP40-soluble protein abundance (concentration: 8mM)	NP40-soluble protein abundance (concentration: 10mM)
A0A0C4DH16|B8ZZS0 and related entries (UniProt Q9NYM9)	0.849 ± 0.071	0.819 ± 0.096	1.03 ± 0.032	0.95 ± 0.053	0.965 ± 0.036	0.962 ± 0.083	0.888 ± 0.098	1.03 ± 0.048
UniProt A4D161 and related entries	1.07 ± 0.17	1.05 ± 0.19	1.02 ± 0.2	1 ± 0.12	1.01 ± 0.09	0.974 ± 0.14	0.979 ± 0.062	1.01 ± 0.16
